Measured values taken from publication PMC10901736.
No constants are given. Whether binding was seen depends on the method and setting. Some binding calls cover weakened binding; strength is not graded here.

The chains behind the UniProt entries cited, without tags or fusion partners.
UniProt A0A0M4U5B4: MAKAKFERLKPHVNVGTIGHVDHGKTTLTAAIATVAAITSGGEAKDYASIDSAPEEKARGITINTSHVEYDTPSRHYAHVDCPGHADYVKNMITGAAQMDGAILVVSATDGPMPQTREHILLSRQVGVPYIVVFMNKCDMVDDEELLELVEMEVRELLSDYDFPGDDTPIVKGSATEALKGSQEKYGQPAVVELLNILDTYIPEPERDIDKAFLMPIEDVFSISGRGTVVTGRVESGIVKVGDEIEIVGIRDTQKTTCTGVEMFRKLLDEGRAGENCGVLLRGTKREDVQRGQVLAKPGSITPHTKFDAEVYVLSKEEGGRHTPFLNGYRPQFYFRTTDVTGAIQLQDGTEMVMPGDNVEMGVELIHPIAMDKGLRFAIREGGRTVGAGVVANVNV

Target: ribosomal protein bL12 (L7/L12 stalk) from Psychrobacter urativorans (P. urativorans (endogenous in P. urativorans))
Experiment: cryo-EM structure; crude ribosomes isolated from ice-treated (cold shock) P. urativorans cells, buffer A (50 mM Tris-HCl pH 7.5, 20 mM magnesium acetate, 50 mM KCl); focused classification of Balon-bound 70S ribosomes; a 5 Å map of ribosomes from stationary-phase cells shows trace amounts of EF-Tu

elongation factor EF-Tu from Psychrobacter urativorans (from UniProt A0A0M4U5B4 1-396)
binding: binds
